Drawing on article PMC4299599, “Quantification of cytosolic interactions identifies Ede1 oligomers as key organizers of endocytosis” (Molecular Systems Biology, 2014), this text covers binding for one molecule.

One assay has as its target T1, Scd5 (S. cerevisiae) (UniProt P34758).
T1 sequence: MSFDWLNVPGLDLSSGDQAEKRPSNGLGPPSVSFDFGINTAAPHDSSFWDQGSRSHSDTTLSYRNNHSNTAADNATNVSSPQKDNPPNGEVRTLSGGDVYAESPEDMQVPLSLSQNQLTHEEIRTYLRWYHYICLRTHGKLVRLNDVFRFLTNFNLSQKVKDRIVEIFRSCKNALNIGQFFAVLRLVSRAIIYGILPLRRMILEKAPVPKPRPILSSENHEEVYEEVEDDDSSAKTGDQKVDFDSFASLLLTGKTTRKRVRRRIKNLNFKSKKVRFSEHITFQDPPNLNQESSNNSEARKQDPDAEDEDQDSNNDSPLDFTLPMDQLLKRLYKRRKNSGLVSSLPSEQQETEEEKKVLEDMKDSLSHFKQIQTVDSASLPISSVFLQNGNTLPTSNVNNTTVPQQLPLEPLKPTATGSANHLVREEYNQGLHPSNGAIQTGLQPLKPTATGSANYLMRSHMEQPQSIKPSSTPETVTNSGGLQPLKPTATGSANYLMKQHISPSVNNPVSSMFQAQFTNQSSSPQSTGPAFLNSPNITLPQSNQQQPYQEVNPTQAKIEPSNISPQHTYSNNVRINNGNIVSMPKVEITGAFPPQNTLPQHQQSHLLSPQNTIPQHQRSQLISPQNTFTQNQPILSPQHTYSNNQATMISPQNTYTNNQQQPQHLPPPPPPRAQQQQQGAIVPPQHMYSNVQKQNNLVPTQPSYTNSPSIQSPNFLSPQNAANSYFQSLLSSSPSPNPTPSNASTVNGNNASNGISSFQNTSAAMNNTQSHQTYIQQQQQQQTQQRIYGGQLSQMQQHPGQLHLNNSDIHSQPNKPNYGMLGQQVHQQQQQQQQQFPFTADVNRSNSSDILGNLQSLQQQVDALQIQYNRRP
Description: condition: detection range of FCCS: apparent KD up to ~1 μM; fluorescence cross-correlation spectroscopy (FCCS); living yeast cells, observation volume in the cytoplasm; one protein tagged with (3)myeGFP/eGFP and the other with 3mCherry in the same strain; apparent (effective) KD; interactions up to ~1 μM detectable.

A further assay addresses T2, Ent1 (S. cerevisiae) (UniProt Q12518).
T2 sequence: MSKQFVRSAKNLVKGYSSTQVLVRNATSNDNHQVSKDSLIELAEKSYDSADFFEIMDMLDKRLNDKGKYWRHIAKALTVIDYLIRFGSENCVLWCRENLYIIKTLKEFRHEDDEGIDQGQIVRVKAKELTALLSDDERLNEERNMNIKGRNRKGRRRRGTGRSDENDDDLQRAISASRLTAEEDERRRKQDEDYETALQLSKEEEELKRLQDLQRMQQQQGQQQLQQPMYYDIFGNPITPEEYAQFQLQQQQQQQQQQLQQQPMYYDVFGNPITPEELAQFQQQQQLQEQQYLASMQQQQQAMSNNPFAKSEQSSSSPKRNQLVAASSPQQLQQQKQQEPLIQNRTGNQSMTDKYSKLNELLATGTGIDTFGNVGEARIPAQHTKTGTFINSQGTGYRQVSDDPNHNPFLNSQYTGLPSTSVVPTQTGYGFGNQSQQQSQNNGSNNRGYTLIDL
Description: condition: 1000 nM (only Kdeff-values < 1000 nM are shown); fluorescence cross-correlation spectroscopy (FCCS); in the cytoplasm of living yeast cells; first-named protein green (3myeGFP or 1myeGFP; eGFP for Don1), second red (3mCherry); self-interaction in diploid strains with one allele of each colour; apparent or effective KD (Kdeff) from single-cell measurements; only Kdeff values < 1000 nM are shown; values for self-interactions are upper limits.

These are yes or no findings as the source states them, for the method shown.

B1: Pan1 (protein, UniProt P32521 1-1480)
chain: MYNPYQQQGMGYQQQQQQQQQQPNGFYPQQQQGQSSNQPQGQPQPQQQMAFNQPQATGIGGMPQSFGNSFSSMPQQPQTGYNNNGNNGSVYGNGNFGQQPQQQQQQAKPQHTGYVPNSSMPMMNTTGTMPPPNPAQQPQLQSIQPQGTGYYQAANTANVHSVQPLQSQGTGYYVSTPNLISSNQTQQPLQAQGTGYYQSQPQQVPPPQQAQSLQPLKPQQTGFYLQPQNQAPLEPLKPTATGFVNSFANNGLNNDIKIPAIRLSFITAQDQAKFETLFRSIVTNGSNTVSGANCRKILMRSGLPPSQLARIWTLCDTSKAGELLFPEFALAMHLINDVLQGDTIPYELDSKTKNEVSSFIDAINLSIANQDSSANDAPKTPFDEFITAGVQNLQPQPTGYMPQTSFGIPLQSQITGGGVASALNPQSTGFMAPTTFNMSMNTGTPGLNPQITGGAPASMQPNITGNALQPQTTGMMPQTTGMMPQTTGMMPQTSFGVNLGPQLTGGALQSQYTGGYGSVMPQQSGPASMPNLSFNQQGLQSQLTGLQPQPTGFLPPSNFSATMPLTAQKTGFGNNEIYTKSNFNNNLIDNSSQDKISTEEKSLFYKIFETFDTQNKGLLDSPTAVEIFRKSGLNRADLEQIWNLCDINNTGQLNKQEFALGMHLVYGKLNGKPIPNVLPSSLIPSSTKLLDNLKNQLKTEPTTTKEKPSFGKIDALSYKNNDDDVLPNYRNRRKVYSAKNEEQSSFSSPSAKSVNHSSSTLQTDDISVDKTVEKKTAKPKYAGFSREINLKNIASLENEIKNISNPENCYDSSIPSDLTSRFDAIIAKLPNLFNEISTIDNEITNAKIQLYRKKNPSSIIGSGPNGEITENDRKKAKSRALLRARMSALTGKSTESEDSLSMEDEQQSAEIKRIQQENGKNQEIIKDIRSSISDISASLKSTMTGSNMISNQEFERWEFGIGLEDGVREFLDDLKSNSNKSVTESSPFVPSSTPTPVDDRSSSPSYSQFKTAEERAAYLKEQAKKRMKEKLAKFDKNRRNVTQSSRSISSENSREQPQQIAGSSNLVEPRATPFQEEKYVEVAQPTQPVQSTQPVQPTQPVQPTQPVQPTQPVQPTQPVQPTQPVQNVYNAKQESDDEDEDDEEKRLQEELKRLKLKKKADKEKRLAALRKQIEDAQNESDEEETNGKDNFGGHVNVPQAAPVAPSAAFSQNSTNAPRSVHAAVTPAAGKNSTGLPSTTMGHNPYFKDASASSTSTFDARAAEMQRRIQRGLDEDEDDGWSDEDESNNRVAVDNKVEEAKIGHPDHARAPPVTAAPLPSVTPVPPAVPVPQANTSNEKSSPIPIAPIPPSVTQEPPVPLAPPLPAVDGFQEPPIPSAPAIATAVQKSGSSTPALAGGVLPPPPPLPTQQASTSEPIIAHVDNYNGAEKGTGAYGSDSDDDVLSIPESVGTDEEEEGAQPVSTAGIPSIPPAGIPPPPPLP
As for B1, the binding result with Scd5 (S. cerevisiae) and in the assay with Ent1 (S. cerevisiae) was “no binding” in each case.
